Measured values published in PubChem BioAssay AID588590 (National Center for Advancing Translational Sciences (NCATS), 2011).
In all, about 390,000 compounds went through this assay and about 4,000 (1%) were called active. Inconclusive results, whose numbers are uncertain, are shown with a selection of clear calls. Calls follow the shape of the dose curve; as a rule, active = well fitted inhibition curve with a large enough effect; inconclusive = small, poorly fitted or top-dose-only effect, or another doubt; inactive = no such curve, though single readings can be large or run the other way. Potencies of inconclusive entries are doubtful fits and often do not repeat.

Protein sequences, listed by entry. Tags and fused reporters are not part of them. Lines headed by an entry give the natural chain unless they say otherwise; changes in a name come on top.
UniProt Q9UNA4: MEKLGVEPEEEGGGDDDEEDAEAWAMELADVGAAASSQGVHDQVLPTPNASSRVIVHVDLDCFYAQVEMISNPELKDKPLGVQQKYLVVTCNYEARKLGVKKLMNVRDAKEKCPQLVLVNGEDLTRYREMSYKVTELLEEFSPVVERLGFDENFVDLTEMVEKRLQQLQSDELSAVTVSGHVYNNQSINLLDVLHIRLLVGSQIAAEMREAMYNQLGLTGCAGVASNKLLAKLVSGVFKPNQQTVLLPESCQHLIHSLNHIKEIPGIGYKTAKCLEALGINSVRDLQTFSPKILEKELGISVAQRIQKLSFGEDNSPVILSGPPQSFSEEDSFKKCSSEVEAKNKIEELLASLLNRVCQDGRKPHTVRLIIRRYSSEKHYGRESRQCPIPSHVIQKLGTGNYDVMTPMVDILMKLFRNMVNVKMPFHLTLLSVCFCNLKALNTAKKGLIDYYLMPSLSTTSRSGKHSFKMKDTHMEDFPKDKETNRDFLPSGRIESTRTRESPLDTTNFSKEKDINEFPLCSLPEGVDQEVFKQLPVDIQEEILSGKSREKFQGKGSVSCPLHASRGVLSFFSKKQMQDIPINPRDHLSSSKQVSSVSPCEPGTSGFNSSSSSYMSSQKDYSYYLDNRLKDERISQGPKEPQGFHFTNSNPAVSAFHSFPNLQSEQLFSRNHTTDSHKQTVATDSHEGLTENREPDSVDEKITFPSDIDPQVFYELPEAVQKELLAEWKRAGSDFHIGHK

Biological target: DNA polymerase iota (Homo sapiens) (UniProt Q9UNA4)
Assay: qHTS for Inhibitors of Polymerase Iota
Details: Pol iota fluorescent replication assay, 10 min; series mostly up to 115 µM; activity, negative = inhibition: at the top concentration
Outline: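 Pol iota at 10 nM preincubated 15 min with compounds at room temperature; reaction started with fluorescent substrate, 50 nM final. Fluorescence read kinetically at 0 and 10 min; buffer-only wells as negative control.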
Potency is read from the fitted curve at half-maximal effect.

Row | Structure (SMILES) | Potency | activity, negative = inhibition
1 | CN=C1SC(CC(=O)Nc2cccc(C(F)(F)F)c2)C(=O)N1C (stereo unspecified) | inconclusive: 79.4 µM [inhibitor, partial curve, poor fit] | –
2 | CCCCC(=O)Nc1ccc(NCc2ccc(C)s2)cc1 | inconclusive: 39.8 µM [inhibitor, single point] | –
3 | COc1cc2cc(CN(Cc3nnnn3Cc3ccco3)C3CCCCC3)c(=O)[nH]c2cc1OC | inconclusive: 25.1 µM [inhibitor, partial curve] | –
4 | CC1CCN(S(=O)(=O)c2ccc3c(c2)oc(=O)n3CC(=O)NCc2ccc(F)cc2)CC1 | – | inactive: 11.5%
5 | Cc1nn(-c2ccccc2)c2c1C(c1c(C)[nH]c(C#N)c1C)C(C#N)=C(N)O2 (stereo unspecified) | inconclusive: 0.631 µM [inhibitor, full curve, poor fit] | –
6 | O=C(C1=C(O)C(=O)N(CCN2CCOCC2)C1c1cccs1)c1cc2ccccc2o1 (stereo unspecified) | – | inactive: 84.4%
7 | Cc1nc(C)c(C(=O)N(c2ccc(C)c(C)c2)C(C(=O)NCc2ccco2)c2ccccc2)s1 (stereo unspecified) | active: 79.4 µM | –
8 | CCNC(=O)C1CN(S(=O)(=O)c2ccccc2)CCN1S(=O)(=O)c1ccccc1 (stereo unspecified) | inconclusive: 31.6 µM [inhibitor, single point] | –
9 | N#Cc1ccc(NC(=O)COc2ccccc2C(=O)Nc2ccccc2)cc1 | – | inactive: -16.2%
10 | Cc1ccc(C)c(OCC(=O)Nc2ccncc2)c1 | inconclusive: 28.2 µM [inhibitor, full curve, poor fit] | –
11 | CCOC(=O)C[C@H]1c2cc(F)ccc2S(=O)(=O)N1Cc1cc(OC)c(OC)c(OC)c1 | – | inactive: 9.04%
12 | C=CCn1c(-c2ccc3ncccc3c2)n[nH]c1=S | – | inactive: 13.8%
13 | O=C(NCc1ccco1)c1cc2nc(-c3ccc4c(c3)OCO4)cc(C(F)(F)F)n2n1 | – | inactive: -4.53%
14 | O=C1CCCC(=O)C1=C1SCCCS1 | inconclusive: 56.2 µM [inhibitor, partial curve, poor fit] | –
15 | COc1ccc(NC(=O)CCc2nnc3n(C)c(=O)c4sccc4n23)cc1 | inconclusive: 89.1 µM [inhibitor, single point] | –
16 | C=CCc1ccccc1OCCSc1nc(-c2ccc(C(C)(C)C)cc2)nc2cc(=O)[nH]n12 | inconclusive: 89.1 µM [inhibitor, partial curve, poor fit] | –
17 | Oc1ccc(-c2nc3ccccn3c2NCc2ccco2)cc1 | inconclusive: 3.98 µM [inhibitor, partial curve, poor fit] | –
18 | Cc1ccccc1CC1(CO)CCCN(Cc2ccn[nH]2)C1 (stereo unspecified) | inconclusive: 89.1 µM [inhibitor, single point] | –
19 | COC(=O)c1ccc(/C=N/n2c(C)nc3ccccc3c2=O)cc1 | – | inactive: -28.4%
20 | CCOc1cc(-c2sc(Nc3cc(C)ccc3OC)n[n+]2-c2ccccc2)ccc1OC | inconclusive: 25.1 µM [inhibitor, partial curve, poor fit] | –
21 | FC(F)(F)c1ccc(Cl)c(NC2=NCCCCC2)c1 | – | inactive: -15.1%
22 | O=C1c2ccccc2C(=O)C1(c1ccccc1)N1CCN(c2cccc(Cl)c2)CC1 | – | inactive: 3.39%

Looked up by compound from the entries so far, four records:
Row | Structure (SMILES) | Potency | activity, negative = inhibition
21 | FC(F)(F)c1ccc(Cl)c(NC2=NCCCCC2)c1 | – | inactive: -15.1%
4 | CC1CCN(S(=O)(=O)c2ccc3c(c2)oc(=O)n3CC(=O)NCc2ccc(F)cc2)CC1 | – | inactive: 11.5%
12 | C=CCn1c(-c2ccc3ncccc3c2)n[nH]c1=S | – | inactive: 13.8%
18 | Cc1ccccc1CC1(CO)CCCN(Cc2ccn[nH]2)C1 (stereo unspecified) | inconclusive: 89.1 µM [inhibitor, single point] | –

The results go on.

Row | Structure (SMILES) | Potency | activity, negative = inhibition
23 | Cc1ccc(-c2cc(C(F)(F)F)n3nc(C(=O)Nc4ccc(Cl)cc4Cl)cc3n2)cc1 | – | inactive: -3.25%
24 | COc1ccc(-n2c(/C=C/c3ccccc3F)nc3cc(OC)c(OC)cc3c2=O)cc1Cl | – | inactive: 14.5%
25 | COC(=O)c1scc(-c2ccccc2)c1S(=O)(=O)Nc1ccccc1 | – | inactive: 2.13%
26 | CC1(C)CC(=O)c2cnc(N3CCc4ccccc4C3)nc2C1 | inconclusive: 79.4 µM [inhibitor, partial curve] | –
27 | O=C(COC(=O)Cc1ccc(S(=O)(=O)N2CCOCC2)s1)NCc1ccc(Cl)cc1 | inconclusive: 17.8 µM [inhibitor, full curve, poor fit] | –
28 | O=C(NCc1ccc(F)cc1)c1ccc(CSCc2cccc(Cl)c2)o1 | inconclusive: 89.1 µM [inhibitor, single point] | –
29 | CCN(C[C@H]1N[C@@](CC)(C(=O)OC)[C@H]2C(=O)N(Cc3ccccc3)C(=O)[C@@H]12)C(=O)NC(C)C | inconclusive: 1 µM [inhibitor, partial curve, poor fit] | –
30 | COCCN1C(=O)C(C(=O)OC)CC2=C1CC(C)(C)CC2=O (stereo unspecified) | inconclusive: 39.8 µM [inhibitor, single point] | –
31 | COc1ccc(CNc2cccc3[nH]c(C(F)(F)F)nc23)cc1OC | inconclusive: 25.1 µM [inhibitor, partial curve, poor fit] | –
32 | NC1=NC(=O)/C(=C\c2ccc(-c3ccccc3[N+](=O)[O-])o2)S1 | active: 20 µM | –
33 | COc1ccc(NC(=O)Cn2nnc(C(=O)Nc3ccc(F)c(Cl)c3)c2N)cc1 | inconclusive: 11.2 µM [inhibitor, partial curve, poor fit] | –
34 | CCOc1ccc(C(=O)CCC(=O)N2CCN(c3ccc(O)cc3)CC2)cc1 | inconclusive: 89.1 µM [inhibitor, partial curve, poor fit] | –
35 | COCC(=O)Oc1c(Sc2ccc(C)cc2)c(C)nn1C(C)(C)C | inconclusive: 79.4 µM [inhibitor, partial curve, poor fit] | –
36 | O=C(O)c1cc2cc(Cl)cc(Cl)c2oc1=O | inconclusive: 14.1 µM [inhibitor, full curve, poor fit] | –
37 | COc1ccc2c(/C=N/Nc3ccc(C(=O)O)cc3)c[nH]c2c1 | inconclusive: 10 µM [inhibitor, full curve, poor fit] | –
38 | Cc1ccc2nc(N3CCN(Cc4nnnn4Cc4ccccc4)CC3)c(C#N)cc2c1 | inconclusive: 22.4 µM [inhibitor, single point] | –
39 | CCOC(=O)C1CCCN(C(=O)c2cc3ncc(Br)cn3n2)C1 (stereo unspecified) | inconclusive: 79.4 µM [inhibitor, partial curve, poor fit] | –
40 | Cc1ccc(C2C=C(c3ccc(Cl)cc3)Nc3nc(NS(=O)(=O)c4ccccc4)nn32)cc1 (stereo unspecified) | inconclusive: 89.1 µM [inhibitor, partial curve, poor fit] | –
41 | COc1ccc(-c2cc(C(=O)N3CCN(c4ncccn4)CC3)c3ccccc3n2)cc1 | – | inactive: -0.962%
42 | C#CCOCCOCCOCCNc1nc(N2CCN(C(=O)[C@H](C(C)C)n3cc(CCO)nn3)CC2)nc(N2CCN(C(=O)[C@H](Cc3ccc(O)cc3)n3cc(CCO)nn3)CC2)n1 | inconclusive: 25.1 µM [inhibitor, single point] | –
43 | Cc1ccc(N(CC(O)COCc2ccco2)S(=O)(=O)c2ccc(C)cc2)cc1 (stereo unspecified) | inconclusive: 20 µM [inhibitor, full curve] | –
44 | CCc1ccc(CCC(=O)Nc2ccc(Br)cc2)o1 | inconclusive: 89.1 µM [inhibitor, single point] | –

Record cards, as listed above.
O=C(NCc1ccc(F)cc1)c1ccc(CSCc2cccc(Cl)c2)o1 reads Potency: inconclusive: 89.1 µM [inhibitor, single point]
NC1=NC(=O)/C(=C\c2ccc(-c3ccccc3[N+](=O)[O-])o2)S1 reads Potency: active: 20 µM

(continued)

Row | Structure (SMILES) | Potency | activity, negative = inhibition
45 | COc1cccc(NC(=O)CSC2=Nc3ccccc3N=C(c3ccc(F)cc3)C2)c1 | inconclusive: 79.4 µM [inhibitor, single point] | –
46 | COc1ccc2[nH]c3c(NCCCOC(C)C)ncnc3c2c1 | – | inactive: 8.27%
47 | O=C1CCCc2[nH]c(=O)c(C(=O)NCc3ccccc3)cc21 | – | inactive: 6.77%
48 | COc1ccc(C(=O)NCCn2cc(SCC(=O)Nc3cccc(C)c3)c3ccccc32)cc1 | inconclusive: 89.1 µM [inhibitor, single point] | –
49 | Cc1ccc(O)c(C(=O)c2cnn(-c3ccccc3)c2)c1 | inconclusive: 89.1 µM [inhibitor, single point] | –
50 | CCOCCCNc1nc(C)nc2c1nnn2Cc1c(F)cccc1Cl | – | inactive: -2.85%
51 | CCOC(=O)c1c(N)n(-c2cccc(OC)c2)c2nc3ccccc3nc12 | inconclusive: 39.8 µM [inhibitor, single point] | –
52 | CCc1nn(-c2ccccc2)c2nc(-c3cccc(OC)c3)c3cc(OC)c(OC)cc3c12 | inconclusive: 89.1 µM [inhibitor, single point] | –
53 | CC(C)Sc1nc(NCc2ccco2)c2c3c(sc2n1)COC(C)(C)C3 | inconclusive: 14.1 µM [inhibitor, partial curve, poor fit] | –
54 | C=C1NN(C(C)C(=O)O)C(=O)N1c1ccc(OCc2ccccc2)cc1 (stereo unspecified) | – | inactive: 13.6%
55 | Clc1ccccc1-c1nn2c(-c3ccncc3)nnc2s1 | inconclusive: 70.8 µM [inhibitor, single point] | –
56 | O=C(CSc1ccsc1[N+](=O)[O-])Nc1cccc(F)c1 | inconclusive: 10 µM [inhibitor, full curve, poor fit] | –
57 | COc1ccc(NC(=S)NCCc2c[nH]c3ccccc23)cc1 | – | inactive: 5.73%
58 | COc1ccc(/C=C/C(=O)Nc2cc(C(F)(F)F)ccc2Cl)cc1OC | inconclusive: 70.8 µM [inhibitor, partial curve, poor fit] | –
59 | Cc1ccc(C(=O)N(C)c2nnc(-c3ccncc3)s2)cc1 | – | inactive: 61.5%
60 | CCOC(=O)c1ccccc1NC(=O)CCOc1ccccc1 | – | inactive: 0.44%
61 | COc1ccc(-n2c(C)cc(C(=O)CCl)c2C)cc1 | inconclusive: 14.1 µM [inhibitor, full curve] | –
62 | N#Cc1c(-c2ccccc2)cc(-c2ccccc2)nc1SCC(=O)O | inconclusive: 50.1 µM [inhibitor, partial curve, poor fit] | –
63 | CCOC(=O)N1CCN(Cc2nnc(-c3ccccc3Cl)o2)CC1 | inconclusive: 28.2 µM [inhibitor, single point] | –
64 | Cc1ccc(SCc2nc(-c3ccc(C(=O)NCc4ccc(Cl)cc4)cc3)oc2C)cc1 | inconclusive: 89.1 µM [inhibitor, single point] | –
65 | COc1ccccc1CN=Cc1[nH]c2ccc(Br)c(Cl)c2c1O | inconclusive: 39.8 µM [inhibitor, single point] | –
66 | CCN(Cc1ccccc1)C(=O)c1nc(-c2cccc(F)c2)n2c1CCCCC2 | inconclusive: 89.1 µM [inhibitor, single point] | –
